Here are results for one molecule from article PMC9941515.

These are yes or no findings as the source states them, for the method shown. In cells and extracts the contact can be indirect. Some results given as binding are weak or reduced against the parent protein; the word gives no strength. Where a sequence is shown, tags or fusion partners need not be part of it.

The target in this assay is T1, ODF4-EGFP (outer dense fiber 4 fused to EGFP) (mouse) (UniProt Q8VI88).
T1 sequence: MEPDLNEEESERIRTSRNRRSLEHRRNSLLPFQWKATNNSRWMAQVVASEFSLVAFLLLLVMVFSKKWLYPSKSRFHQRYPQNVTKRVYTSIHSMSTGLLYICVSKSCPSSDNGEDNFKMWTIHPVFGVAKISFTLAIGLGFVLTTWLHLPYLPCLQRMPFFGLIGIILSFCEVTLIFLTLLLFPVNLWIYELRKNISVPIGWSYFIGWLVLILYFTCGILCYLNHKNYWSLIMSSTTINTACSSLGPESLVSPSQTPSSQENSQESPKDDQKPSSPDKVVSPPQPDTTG
The assay is described as follows: co-IP; IP with mouse monoclonal anti-GFP antibody (B2) on Dynabeads Protein G from RIPA buffer extracts of Tg(Odf4-Egfp)Odf4+/+ spermatozoa; western blotting with anti-AK1 and anti-AK2; Odf4-/- sperm extract as negative control.

B1: Adenylate kinase 1 (AK1) (enzyme, UniProt Q9R0Y5 1-194)
chain: MEEKLKKAKIIFVVGGPGSGKGTQCEKIVQKYGYTHLSTGDLLRAEVSSGSERGKKLSAIMEKGELVPLDTVLDMLRDAMLAKVDSSNGFLIDGYPREVKQGEEFEQKIGQPTLLLYVDAGAETMTQRLLKRGETSGRVDDNEETIKKRLETYYNATEPVISFYDKRGIVRKVNAEGTVDTVFSEVCTYLDSLK
In the case of B1, the binding entry is on record as “binds”.
